These are yes or no findings as the source states them, for the method shown. Binding seen in cells or lysates may run through a third protein. Some entries that bind do so weakly or less than the wild type. Tags and fused reporters may be left off the sequences shown.
Molecular target: T1, HIS-RelB2 (Mycobacterium tuberculosis RelB2 antitoxin) (Mycobacterium tuberculosis H37Rv) (UniProt O33347)
T1 sequence: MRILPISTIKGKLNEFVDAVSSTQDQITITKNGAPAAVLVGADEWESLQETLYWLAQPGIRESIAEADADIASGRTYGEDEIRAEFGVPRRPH
Assay: pull-down

B1: RelE2-HSV (Mycobacterium tuberculosis RelE2 toxin) (protein, UniProt O33348 1-87)
chain: MPYTVRFTTTARRDLHKLPPRILAAVVEFAFGDLSREPLRVGKPLRRELAGTFSARRGTYRLLYRIDDEHTTVVILRVDHRADIYRR
**Q.** With B1 as the binder, how does the binding read?
**A.** binds
